# Reference: PubChem BioAssay AID2685 (National Center for Advancing Translational Sciences (NCATS), 2010)
# The list shows a part of the results. Shown are side measurements of this screen, not its main read-out; they come without a call. Most of these compounds were active or inconclusive in the main read-out, so they are no random draw. Potencies come from curve fits of mixed quality, noted in brackets.
# Test: qHTS Assay for Lipid Storage Modulators in Drosophila S3 Cells;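 on cell number change: cells counted by Cell Tracker Red CMTPX staining in the red channel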
# Conditions: BODIPY lipid droplet fluorescence, 18-24 h; for cell number change: measured here: cell count max response, cells fed with added oleic acid
# In short: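 Drosophila S3 cells loaded with oleic acid (400 uM, as added) and compounds at several concentrations; lipid droplets imaged by 488-nm laser-scanning cytometry, 500–530 nm intensity and object ratio to cell channel. Percent activity normalized to 20 uM Triacsin C.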
# [1] = measured here: lipid fluorescence (Fed channel) AC50, cells fed with added oleic acid
# [2] = measured here: cell number channel AC50, cells fed with added oleic acid
compound,measurement,setting,value
Cc1ccccc1CCNC(=O)Cn1ccc2cc(S(=O)(=O)N3CCCC3)ccc21,cell number change,,-3.36%
same,AC50,[1],"0.82 µM [rising, single point]"
CC1CCN(c2nnc(NC(=O)Cn3c(=O)oc4ccccc43)s2)CC1,cell number change,,20.5%
same,AC50,[1],"0.231 µM [falling, full curve, poor fit]"
Fc1ccc(C2CC(c3cccs3)=NN2c2ccccc2)cc1 (configuration not stated),cell number change,,-44.9%
same,AC50,[2],"9.2 µM [falling, partial curve, poor fit]"
same,AC50,[1],"0.116 µM [falling, full curve, poor fit]"
Cc1ccc(CN(c2ccc(C(=O)Nc3ccc4c(c3)OCO4)cc2)S(C)(=O)=O)cc1,cell number change,,84.4%
same,AC50,[2],"1.03 µM [rising, full curve]"
same,AC50,[1],"1.3 µM [rising, full curve]"
CCN(CC(=O)NCc1cccs1)C(=O)c1ccccc1Cl,cell number change,,-8.73%
same,AC50,[2],"6.51 µM [falling, partial curve]"
CCOc1ccccc1OCC(=O)Nc1cc(S(=O)(=O)N2CCCCC2)ccc1N1CCN(CC)CC1,AC50,[1],"3.66 µM [rising, partial curve]"
COc1ccc(COC(=O)Oc2ccc(CNC(C)=O)cc2OC)c([N+](=O)[O-])c1,cell number change,,17.2%
same,AC50,[2],"6.51 µM [falling, single point]"
same,AC50,[1],"5.8 µM [falling, single point]"
COc1ccc(/C=N/NC(=O)c2cc(C)oc2C)cc1OCc1ccccc1,AC50,[1],"0.103 µM [falling, full curve, poor fit]"
COc1cccc(-n2cnnn2)c1,cell number change,,1.59%
COc1ccccc1NC(=O)C(=O)N(c1cccnc1)C(C(=O)NC(C)(C)C)c1ccccc1 (configuration not stated),cell number change,,-28.3%
Cc1ccc(CNC(=O)c2ccc(S(=O)(=O)N(C)C)cc2)n1C,cell number change,,2.86%
same,AC50,[1],"6.51 µM [rising, single point]"
Cc1ccc([C@@H]2CC=C(C(=O)O)[C@H](c3ccc(Cl)cc3)N2S(=O)(=O)c2ccc(C)cc2)cc1,cell number change,,32.9%
same,AC50,[2],"29.1 µM [rising, single point]"
same,AC50,[1],"14.6 µM [rising, partial curve, poor fit]"
CCCN(S(=O)(=O)c1ccccc1F)S(=O)(=O)c1ccccc1Br,cell number change,,-27.8%
CN(C)c1oc(-c2ccccc2Cl)nc1C#N,cell number change,,21.1%
same,AC50,[2],"0.231 µM [rising, full curve, poor fit]"
same,AC50,[1],"0.231 µM [rising, full curve, poor fit]"
COc1ccc(NC(=O)c2ccc3ccccc3c2)cc1NS(=O)(=O)c1ccc(F)cc1,cell number change,,15.8%
O=C(c1ccco1)N1CCN(Cc2nnnn2C2CCCCC2)CC1,cell number change,,9.57%
same,AC50,[1],"0.58 µM [falling, single point]"
COC(=O)C(Cc1ccccc1)NC(=O)c1ccc(NS(=O)(=O)c2ccc3[nH]c(=O)[nH]c3c2)cc1 (configuration not stated),cell number change,,-3.5%
Cc1ccc(S(=O)(=O)N2CCC(C(N)=O)CC2)cc1[N+](=O)[O-],cell number change,,8.55%
same,AC50,[1],"6.51 µM [rising, single point]"
NC(=O)CC(NC(=O)Cc1ccc(Br)cc1)c1ccc(NC2CCN(Cc3ccccc3)CC2)c([N+](=O)[O-])c1 (configuration not stated),cell number change,,-10.8%
same,AC50,[1],"3.26 µM [falling, single point]"
CC(C)CN(C(=O)C1=NN(c2ccccc2)C(=O)CC1)c1c(N)n(Cc2ccccc2)c(=O)[nH]c1=O,cell number change,,-20.4%
CC(C)Cn1c(N)c(C(=O)COC(=O)c2ccccc2F)c(=O)n(C)c1=O,cell number change,,12.1%
Cc1cc(NC(=O)CN2C(=O)NC(CCc3ccccc3)C2=O)no1 (configuration not stated),cell number change,,34.4%
same,AC50,[2],"25.9 µM [rising, single point]"
same,AC50,[1],"3.66 µM [falling, single point]"
COCCNC(=O)C(=O)N/N=C/c1cccs1,cell number change,,30.9%
same,AC50,[2],"0.116 µM [rising, full curve, poor fit]"
same,AC50,[1],"0.0164 µM [rising, full curve]"
O=C(Nc1cc(S(=O)(=O)N2CCOCC2)ccc1N1CCCCC1)c1ccccc1,cell number change,,-0.194%
same,AC50,[2],"2.06 µM [rising, partial curve, poor fit]"
same,AC50,[1],"0.82 µM [rising, full curve, poor fit]"
CCOc1ccc(NC(=O)N2CCC(NC(=O)C(Cc3cccc(F)c3)NC(C)=O)CC2)cc1 (configuration not stated),cell number change,,-2.1%
COCCNC(=O)CSc1cc(-c2ccccc2)c2ccc(OC)cc2n1,cell number change,,14.2%
same,AC50,[2],"6.51 µM [rising, single point]"
same,AC50,[1],"0.58 µM [falling, single point]"
Cc1nc2ccc(C(=O)N/N=C/c3ccc(O)cc3)cc2[nH]1,cell number change,,4.76%
same,AC50,[1],"5.8 µM [rising, single point]"
Cc1cc(Cl)ccc1OCC(=O)OCC(=O)Nc1cccnc1Cl,cell number change,,7.03%
same,AC50,[1],"6.51 µM [rising, single point]"
Cc1oc2cc(O)cc(O)c2c(=O)c1-c1ccc2c(c1)OCCCO2,cell number change,,-38.5%
same,AC50,[2],"29.1 µM [falling, single point]"
same,AC50,[1],"29.1 µM [falling, single point]"
O=C(COC(=O)C1CC1)Nc1ccc(Oc2ccccc2)cc1,cell number change,,11.3%
same,AC50,[1],"14.6 µM [falling, partial curve]"
Fc1ccccc1/C=N/n1c(C2CCCCC2)n[nH]c1=S,cell number change,,-18.4%
C#CCOc1ccc(Br)cc1/C=N/O,AC50,[1],"0.259 µM [rising, partial curve, poor fit]"
CCCCN(c1ccccc1)S(=O)(=O)c1ccc2c(c1)CCN2C(=O)CCC(=O)O,AC50,[1],"5.17 µM [falling, partial curve]"
COc1ccc(NS(=O)(=O)c2ccc(-n3nnc4ccccc43)c([N+](=O)[O-])c2)cc1,cell number change,,-19.4%
same,AC50,[2],"0.00517 µM [falling, full curve, poor fit]"
same,AC50,[1],"0.116 µM [falling, full curve]"
COc1ccc(S(=O)(=O)Nc2ccc(S(=O)(=O)N3CCOCC3)cc2)cc1,cell number change,,-4.78%
same,AC50,[1],"0.206 µM [rising, full curve]"
COc1ccc(CN2CCN(C(=O)c3cccc4ccccc34)CC2)c(OC)c1OC,cell number change,,3.56%
Cc1ccc(C(CNC(=O)C(=O)Nc2ccc3c(c2)OCCO3)N2CCN(C)CC2)cc1 (configuration not stated),cell number change,,-10.9%
same,AC50,[2],"0.116 µM [falling, full curve, poor fit]"
same,AC50,[1],"0.731 µM [falling, full curve, poor fit]"
CCN(CC(=O)NC(c1ccccc1)c1ccccc1)Cc1nc2ccccc2c(=O)[nH]1,AC50,[2],"0.82 µM [rising, partial curve, poor fit]"
C=C(C)CSc1cc(C)c(C#N)c2nc3ccccc3n12,cell number change,,-7.72%
same,AC50,[1],"0.00651 µM [rising, full curve, poor fit]"
Cn1c(=O)c(C(=O)NNC(=O)c2ccc(Br)cc2)c(O)c2ccccc21,AC50,[1],"6.51 µM [falling, single point]"
CCC1CSC(=Nc2ccc(C)cc2)N1C(=O)CN1C(=O)NC2(CCCC2)C1=O (configuration not stated),cell number change,,-16.3%
Cc1cccc(NCCNc2cccc(C)c2)c1,cell number change,,-45.5%
same,AC50,[2],"29.1 µM [falling, single point]"
same,AC50,[1],"29.1 µM [falling, single point]"
O=C(O)C1CC=CCC1C(=O)Nc1cccc(Cl)c1 (configuration not stated),cell number change,,15.9%
same,AC50,[1],"9.2 µM [rising, partial curve]"
COc1ccc(-n2nc(C(=O)NCC(=O)N3CCCCCC3)c3ccccc3c2=O)c(OC)c1,cell number change,,29.1%
same,AC50,[1],"6.51 µM [falling, single point]"
COCc1cc(C)nc(N2CCc3ccccc32)c1C#N,cell number change,,94.2%
same,AC50,[2],"23.1 µM [rising, single point]"
same,AC50,[1],"1.3 µM [rising, full curve, poor fit]"
CCCCNC(=O)Cn1c(=O)c2c(ncn2CCC(C)C)n(Cc2ccccc2)c1=O,cell number change,,24.3%
COc1ccc(-n2ncc3c(N4CCN(c5cccc(C)c5C)CC4)ncnc32)cc1,cell number change,,-5.09%
same,AC50,[1],"29.1 µM [rising, single point]"
COc1ccc(C(=O)Oc2ccc(N(C)S(=O)(=O)c3ccccc3)cc2)cc1[N+](=O)[O-],cell number change,,-6.05%
same,AC50,[1],"0.259 µM [falling, full curve, poor fit]"
CN(c1ccccc1)S(=O)(=O)c1ccc(Cl)c(C(=O)Nc2nc3ccccc3[nH]2)c1,cell number change,,-17.6%
same,AC50,[1],"2.06 µM [rising, partial curve]"
Cc1ccc(C)c(CNS(=O)(=O)c2c(C)[nH]c(C)c2C(=O)N2CCCCC2)c1,cell number change,,2.75%
same,AC50,[1],"0.58 µM [falling, single point]"
COc1ccc(CNC(=O)COc2ccc(S(=O)(=O)N3CCCCC3)cc2Cl)cc1,cell number change,,-13.9%
CCn1c(=N)n(CCO)c2ccccc21,cell number change,,16.9%
same,AC50,[2],"0.731 µM [falling, full curve, poor fit]"
same,AC50,[1],"0.184 µM [falling, full curve, poor fit]"
NC(=O)CC(O)c1cccc(Cl)c1 (configuration not stated),cell number change,,2.88%
COc1ccc(-c2noc(C3CCCN(C(=O)c4cccs4)C3)n2)cc1 (configuration not stated),cell number change,,-12.9%
same,AC50,[1],"6.51 µM [rising, single point]"
Cc1cc(Oc2cnn(C(C)(C)C)c(=O)c2Cl)cc(C(C)C)c1,cell number change,,-64.4%
same,AC50,[2],"18.4 µM [falling, single point]"
CCOC(=O)c1sc(N=NC2=C(O)CCCC2=O)c(C(=O)OCC)c1C,cell number change,,-1.21%
same,AC50,[1],"0.0058 µM [rising, full curve, poor fit]"
Cc1ccc(SCC(=O)OCC(=O)N(C)C2CCS(=O)(=O)C2)cc1C (configuration not stated),cell number change,,-0.672%
same,AC50,[1],"3.26 µM [falling, full curve]"
O=C(Nc1nc2ccccc2s1)C1CCCO1 (configuration not stated),cell number change,,-6.88%
same,AC50,[1],"29.1 µM [falling, single point]"
CC12CCC(C(=O)NCc3ccc(F)cc3)(OC1=O)C2(C)C (configuration not stated),cell number change,,-24.1%

# A stretch from further up, as a working copy:
compound,measurement,setting,value
Cc1ccc(CN(c2ccc(C(=O)Nc3ccc4c(c3)OCO4)cc2)S(C)(=O)=O)cc1,AC50,[1],"1.3 µM [rising, full curve]"
CCN(CC(=O)NCc1cccs1)C(=O)c1ccccc1Cl,cell number change,,-8.73%
same,AC50,[2],"6.51 µM [falling, partial curve]"
CCOc1ccccc1OCC(=O)Nc1cc(S(=O)(=O)N2CCCCC2)ccc1N1CCN(CC)CC1,AC50,[1],"3.66 µM [rising, partial curve]"
COc1ccc(COC(=O)Oc2ccc(CNC(C)=O)cc2OC)c([N+](=O)[O-])c1,cell number change,,17.2%
